Binding data for 1 molecule are collected here from patent publication US20260117228A1.

No constants are given. Whether binding was seen depends on the method and setting. In cells and extracts the contact can be indirect. Some entries that bind do so weakly or less than the wild type. Tags and fused reporters may be left off the sequences shown.

The target in assay [1] is T1, CCDC39-HA (Coiled-Coil Domain Containing 39, tagged at its C-terminus with HA) (UniProt Q9UFE4).
T1 sequence (looked up): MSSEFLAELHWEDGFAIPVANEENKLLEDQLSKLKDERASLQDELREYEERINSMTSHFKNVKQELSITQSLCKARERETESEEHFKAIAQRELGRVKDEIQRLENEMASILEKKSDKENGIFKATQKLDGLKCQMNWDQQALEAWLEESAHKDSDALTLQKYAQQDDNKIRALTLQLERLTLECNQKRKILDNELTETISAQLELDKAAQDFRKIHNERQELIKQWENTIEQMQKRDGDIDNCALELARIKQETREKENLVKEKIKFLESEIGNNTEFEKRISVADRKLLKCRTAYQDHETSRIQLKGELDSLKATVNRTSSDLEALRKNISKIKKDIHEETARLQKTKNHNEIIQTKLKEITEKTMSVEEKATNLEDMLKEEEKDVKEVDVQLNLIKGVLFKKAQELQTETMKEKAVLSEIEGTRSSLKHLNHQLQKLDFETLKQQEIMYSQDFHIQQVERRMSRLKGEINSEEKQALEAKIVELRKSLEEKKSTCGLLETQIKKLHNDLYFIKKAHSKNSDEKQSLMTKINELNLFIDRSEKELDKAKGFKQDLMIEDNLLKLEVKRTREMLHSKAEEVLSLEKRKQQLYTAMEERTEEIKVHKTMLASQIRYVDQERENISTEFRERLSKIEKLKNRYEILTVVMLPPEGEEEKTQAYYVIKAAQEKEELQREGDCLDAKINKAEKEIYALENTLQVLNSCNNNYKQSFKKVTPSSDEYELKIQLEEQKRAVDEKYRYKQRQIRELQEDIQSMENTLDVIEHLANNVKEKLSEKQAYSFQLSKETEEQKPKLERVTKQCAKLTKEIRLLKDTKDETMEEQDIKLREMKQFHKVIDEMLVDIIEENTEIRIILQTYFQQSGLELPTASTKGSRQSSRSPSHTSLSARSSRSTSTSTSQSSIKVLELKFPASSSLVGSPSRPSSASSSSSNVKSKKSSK
The assay is described as follows: co-immunoprecipitation with CCDC39-HA in HEK293 cells, western blot (figure legend).

Assay [2] concerns the target T1, CCDC39-HA (Coiled-Coil Domain Containing 39, tagged at its C-terminus with HA). The assay is described as follows: co-immunoprecipitation: HA magnetic beads on HEK293T lysate, anti-Flag western blot.

B1: CCDC40^WT-Flag (wild type coiled-coil domain containing 40, tagged at its C-terminus with Flag) (protein, UniProt Q4G0X9 1-1142, looked up, not shown: small tags and cut ends)
chain: MAEPGGAAGRSHPEDGSASEGEKEGNNESHMVSPPEKDDGQKGEEAVGSTEHPEEVTTQAEAAIEEGEVETEGEAAVEGEEEAVSYGDAESEEEYYYTETSSPEGQISAADTTYPYFSPPQELPGEEAYDSVSGEAGLQGFQQEATGPPESRERRVTSPEPSHGVLGPSEQMGQVTSGPAVGRLTGSTEEPQGQVLPMGVQHRFRLSHGSDIESSDLEEFVSQEPVIPPGVPDAHPREGDLPVFQDQIQQPSTEEGAMAERVESEGSDEEAEDEGSQLVVLDPDHPLMVRFQAALKNYLNRQIEKLKLDLQELVVATKQSRAQRQELGVNLYEVQQHLVHLQKLLEKSHDRHAMASSERRQKEEELQAARALYTKTCAAANEERKKLAALQTEMENLALHLFYMQNIDQDMRDDIRVMTQVVKKAETERIRAEIEKKKQDLYVDQLTTRAQQLEEDIALFEAQYLAQAEDTRILRKAVSEACTEIDAISVEKRRIMQQWASSLVGMKHRDEAHRAVLEALRGCQHQAKSTDGEIEAYKKSIMKEEEKNEKLASILNRTETEATLLQKLTTQCLTKQVALQSQFNTYRLTLQDTEDALSQDQLEQMILTEELQAIRQAIQGELELRRKTDAAIREKLQEHMTSNKTTKYFNQLILRLQKEKTNMMTHLSKINGDIAQTTLDITHTSSRLDAHQKTLVELDQDVKKVNELITNSQSEISRRTILIERKQGLINFLNKQLERMVSELGGEEVGPLELEIKRLSKLIDEHDGKAVQAQVTWLRLQQEMVKVTQEQEEQLASLDASKKELHIMEQKKLRVESKIEQEKKEQKEIEHHMKDLDNDLKKLNMLMNKNRCSSEELEQNNRVTENEFVRSLKASERETIKMQDKLNQLSEEKATLLNQLVEAEHQIMLWEKKIQLAKEMRSSVDSEIGQTEIRAMKGEIHRMKVRLGQLLKQQEKMIRAMELAVARRETVTTQAEGQRKMDRKALTRTDFHHKQLELRRKIRDVRKATDECTKTVLELEETQRNVSSSLLEKQEKLSVIQADFDTLEADLTRLGALKRQNLSEIVALQTRLKHLQAVKEGRYVFLFRSKQSLVLERQRLDKRLALIATILDRVRDEYPQFQEALHKVSQMIANKLESPGPS
On to B1, for which the binding entry in assay [1] and in assay [2] was “binds” in each case.
